The source of these data is patent publication CN116355095A.

Assay [1] addresses 食蟹猴TIGIT-hFc (cynomolgus monkey; human). The assay can be described thus: ELISA on coated antigen. (ELISA stands for enzyme-linked immunosorbent assay.)
Assay [2] addresses 恒河猴TIGIT-mFc (rhesus monkey; mouse). The assay can be described thus: ELISA on coated RhTIGIT-mFc.

Results are given in words; binding and its absence hold for the method and conditions named. Some entries that bind do so weakly or less than the wild type.

B1: IF091 (鼠源单克隆抗体mab22) (antibody, V domains shown)
VH: EVKLVESGGGLVQPGGSLKLSCVASGFTFSSYTMSWVRQTPEKRLELVAEISSSGGSTYYPDTVKGRFTISRDNAKNTLFLQMNSLKSEDTAMYYCARPGLGAWFAYWGQGTLVTVSA
VL: DVLMTQTPLSLPVSLGDQASISCRSSQSIVHNSGNTYLEWYLQKPGQSPKLLIYKVSNRFSGVPDRFSGSGSGTDFTLKISRVEAEDLGIYYCFQFSHVPRTFGGGTKLEIK
With B1, the binding result in assay [1] is given as “binds”.

B2: 嵌合抗体mab22c (antibody, human IgG1, kappa, V domains shown)
VH: B1 VH
VL: DVLMTQTPLSLPVSLGDQASISCRSSQSIVHNSGNTYLEWYLQKPGQSPKLLIYKVSNRFSGVPDRFSGSGSGTDFTLKISRVEAEDLGIYYCFQFSHVPRTFGGGTKLEIKR
As to B2, the binding entry in assay [2] is recorded as “binds”.
